Assay [1] deals with FLAG-tagged Sp1 (UniProt P08047). Nature of the assay: co-IP; nuclear lysates from HEK293 cells, treated with DNase I at 37 °C for 30 min before immunoprecipitation; specific antibodies with Protein A/G-plus agarose, or FLAG-conjugated M2 beads eluted with 3X FLAG peptide; Western blot.
For assay [2], the target named is endogenous Sp1 (human (endogenous in EAhy926)) (UniProt P08047). Briefly: co-IP; nuclear lysates from EAhy926 cells (endogenous proteins), treated with DNase I at 37 °C for 30 min before immunoprecipitation; specific antibodies or pre-immune IgG with Protein A/G-plus agarose; Western blot. (In general: A western blot detects proteins with antibodies after separation by electrophoresis.)

Sequences of proteins named here, by UniProt entry; tags and fusion partners are left off.
UniProt P08047: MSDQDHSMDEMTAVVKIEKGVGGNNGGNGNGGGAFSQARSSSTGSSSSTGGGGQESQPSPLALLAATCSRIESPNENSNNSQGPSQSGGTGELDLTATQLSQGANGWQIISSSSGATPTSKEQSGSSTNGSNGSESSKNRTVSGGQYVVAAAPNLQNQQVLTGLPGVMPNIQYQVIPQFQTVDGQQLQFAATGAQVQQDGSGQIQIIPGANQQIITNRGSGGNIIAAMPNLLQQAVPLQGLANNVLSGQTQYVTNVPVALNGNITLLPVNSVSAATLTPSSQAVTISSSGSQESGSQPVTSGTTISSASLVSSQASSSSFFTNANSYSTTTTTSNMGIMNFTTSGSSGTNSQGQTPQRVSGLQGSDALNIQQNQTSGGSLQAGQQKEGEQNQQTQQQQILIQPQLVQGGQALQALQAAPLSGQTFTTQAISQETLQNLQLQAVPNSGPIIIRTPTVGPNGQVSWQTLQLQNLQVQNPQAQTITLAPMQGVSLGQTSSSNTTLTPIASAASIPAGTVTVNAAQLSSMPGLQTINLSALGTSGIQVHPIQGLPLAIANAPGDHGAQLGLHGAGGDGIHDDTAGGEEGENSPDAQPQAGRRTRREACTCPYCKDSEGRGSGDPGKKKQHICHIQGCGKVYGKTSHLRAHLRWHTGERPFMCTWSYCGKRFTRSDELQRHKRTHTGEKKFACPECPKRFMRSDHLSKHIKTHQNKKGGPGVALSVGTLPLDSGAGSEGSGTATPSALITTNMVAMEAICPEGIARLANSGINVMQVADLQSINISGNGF
UniProt P51532: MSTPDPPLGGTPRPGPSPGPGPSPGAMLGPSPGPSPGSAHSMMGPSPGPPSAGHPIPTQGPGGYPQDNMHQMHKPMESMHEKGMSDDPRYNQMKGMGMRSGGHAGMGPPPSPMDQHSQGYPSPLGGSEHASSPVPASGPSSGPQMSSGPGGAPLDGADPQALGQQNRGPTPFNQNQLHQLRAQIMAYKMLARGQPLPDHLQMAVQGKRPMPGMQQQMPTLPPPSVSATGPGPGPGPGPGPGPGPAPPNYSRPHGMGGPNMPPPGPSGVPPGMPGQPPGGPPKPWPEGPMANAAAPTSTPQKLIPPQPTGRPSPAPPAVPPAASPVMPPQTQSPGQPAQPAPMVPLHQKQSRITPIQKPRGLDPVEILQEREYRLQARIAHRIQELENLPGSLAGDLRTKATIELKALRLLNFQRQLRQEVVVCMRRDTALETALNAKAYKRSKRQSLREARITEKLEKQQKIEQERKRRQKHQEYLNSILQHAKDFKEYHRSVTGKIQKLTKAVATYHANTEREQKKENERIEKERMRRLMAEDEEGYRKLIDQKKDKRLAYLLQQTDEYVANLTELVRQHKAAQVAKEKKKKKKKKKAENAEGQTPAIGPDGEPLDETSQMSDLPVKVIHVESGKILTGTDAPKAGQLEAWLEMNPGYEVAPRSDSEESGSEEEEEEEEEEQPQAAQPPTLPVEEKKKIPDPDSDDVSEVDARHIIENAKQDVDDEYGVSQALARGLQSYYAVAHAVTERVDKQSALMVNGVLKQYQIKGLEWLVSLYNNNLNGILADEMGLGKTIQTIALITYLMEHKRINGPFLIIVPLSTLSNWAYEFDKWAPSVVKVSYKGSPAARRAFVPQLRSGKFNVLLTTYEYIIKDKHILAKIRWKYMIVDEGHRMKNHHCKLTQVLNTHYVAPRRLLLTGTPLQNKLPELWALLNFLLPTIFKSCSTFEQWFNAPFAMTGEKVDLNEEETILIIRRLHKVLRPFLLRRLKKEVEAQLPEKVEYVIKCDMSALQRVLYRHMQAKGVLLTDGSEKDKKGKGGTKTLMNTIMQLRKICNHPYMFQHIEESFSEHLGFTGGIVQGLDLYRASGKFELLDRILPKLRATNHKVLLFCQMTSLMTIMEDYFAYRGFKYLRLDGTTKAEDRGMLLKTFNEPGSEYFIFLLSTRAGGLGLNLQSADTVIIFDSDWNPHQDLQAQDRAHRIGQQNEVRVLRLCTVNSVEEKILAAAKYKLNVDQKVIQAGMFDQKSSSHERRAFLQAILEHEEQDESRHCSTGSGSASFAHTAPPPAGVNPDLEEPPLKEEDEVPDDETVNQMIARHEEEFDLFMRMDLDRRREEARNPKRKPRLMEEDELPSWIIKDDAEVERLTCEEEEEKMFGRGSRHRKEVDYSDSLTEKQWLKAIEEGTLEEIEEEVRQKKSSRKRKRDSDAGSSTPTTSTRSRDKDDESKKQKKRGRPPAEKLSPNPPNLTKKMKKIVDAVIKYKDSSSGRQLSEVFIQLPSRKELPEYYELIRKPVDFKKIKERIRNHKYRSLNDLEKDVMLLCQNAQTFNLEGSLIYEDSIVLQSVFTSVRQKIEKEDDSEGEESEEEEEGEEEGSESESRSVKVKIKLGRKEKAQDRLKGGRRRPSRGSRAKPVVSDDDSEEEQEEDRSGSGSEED

Results are given in words; binding and its absence hold for the method and conditions named. In cells and extracts the contact can be indirect. Some entries that bind do so weakly or less than the wild type.

In the case of “Myc-tagged BRG1 (Brahma-related gene 1) (from UniProt P51532 1-1647)”, in assay [1], the binding entry is listed as “binds”.
Take “endogenous BRG1 (from UniProt P51532 1-1647)”: the binding entry in assay [2] was “binds”.

The record behind these values is article PMC7368857.
